Assay results published in patent US20040161776A1.
Changes are numbered by the printed parent chain. No constants are given. Whether binding was seen depends on the method and setting. Some binding calls cover weakened binding; strength is not graded here. Each block holds one binder with its values, some of them ahead of it.

Protein sequences, listed by entry. Tags and fused reporters are not part of them. Lines headed by an entry give the natural chain unless they say otherwise; changes in a name come on top.
UniProt Q04609: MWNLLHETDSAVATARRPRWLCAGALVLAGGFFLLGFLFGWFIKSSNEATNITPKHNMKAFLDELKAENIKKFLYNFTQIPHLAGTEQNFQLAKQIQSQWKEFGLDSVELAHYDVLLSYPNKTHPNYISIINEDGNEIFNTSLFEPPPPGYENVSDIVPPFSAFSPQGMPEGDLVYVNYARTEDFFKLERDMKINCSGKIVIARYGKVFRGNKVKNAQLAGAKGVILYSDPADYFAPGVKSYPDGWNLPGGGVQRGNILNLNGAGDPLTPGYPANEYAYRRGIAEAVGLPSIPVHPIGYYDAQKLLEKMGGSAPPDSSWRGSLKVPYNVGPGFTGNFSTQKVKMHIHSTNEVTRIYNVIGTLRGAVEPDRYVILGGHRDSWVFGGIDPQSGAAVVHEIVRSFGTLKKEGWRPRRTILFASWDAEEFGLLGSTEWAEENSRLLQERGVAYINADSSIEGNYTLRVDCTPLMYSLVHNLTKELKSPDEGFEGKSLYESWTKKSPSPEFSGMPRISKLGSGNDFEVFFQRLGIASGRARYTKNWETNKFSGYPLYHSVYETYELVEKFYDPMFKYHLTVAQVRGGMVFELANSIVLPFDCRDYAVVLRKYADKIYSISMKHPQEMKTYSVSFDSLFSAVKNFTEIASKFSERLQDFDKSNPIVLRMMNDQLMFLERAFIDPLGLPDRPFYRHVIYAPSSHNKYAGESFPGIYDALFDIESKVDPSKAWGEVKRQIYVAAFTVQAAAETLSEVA

Key:
[1] = molecular target: prostate specific membrane antigen (PSMA), full-length human (human) (UniProt Q04609); assay: total cell-associated radioactivity on C4-2 cells at 37 C [panel Total Binding on C4-2]
[2] = molecular target: prostate specific membrane antigen (PSMA), full-length human (human) (UniProt Q04609); assay: flow cytometry on cell-surface PSMA, serial dilutions of unpurified mAb in culture supernatant
rsPSMA dimer (human) [3] = molecular target: rsPSMA dimer (human) (UniProt Q04609); assay: Biacore 3000, antibody amine-coupled to a CM5 chip, rsPSMA dimer at 50 nM flowed over
[4] = molecular target: prostate specific membrane antigen (PSMA), full-length human (human) (UniProt Q04609); assay: flow cytometry, serial dilutions of culture supernatant
rsPSMA monomer (human) = rsPSMA monomer (human) (UniProt Q04609); assay: Biacore 3000, antibody amine-coupled to a CM5 chip, rsPSMA monomer at 100 nM flowed over
rsPSMA dimer (human) [5] = molecular target: rsPSMA dimer (human) (UniProt Q04609); assay: Biacore, mAb immobilized, rsPSMA dimer 50 nM vs monomer 100 nM
[6] = molecular target: prostate specific membrane antigen (PSMA), full-length human (human) (UniProt Q04609); assay: flow cytometry, 3T3-PSMA vs 3T3 cells
[7] = molecular target: prostate specific membrane antigen (PSMA), full-length human (human) (UniProt Q04609); assay: flow cytometry, 3T3-PSMA cells against parent 3T3 cells

binding [1]: binds
B1: 111In labeled mAb 026 (antibody, V domains shown)
VH: QVQLVESGGGVVQPGRSLRLSCAASGFTFSNYVMHWVRQAPGKGLEWVAIIWYDGSNKYYADSVKGRFTISRDNSKNTLYLQMNSLRAEDTAVYYCAGGYNWNYEYHYYGMDVWGQGTTVTVSS
VL: DIQMTQSPSSLSASVGDRVTITCRASQGITNYLAWFQQKPGKAPKSLIYAASSLQSGVPSKFSGSGSGTDFSLTISSLQPEDFATYYCQQYNSYPITFGQGTRLEIK

binding [2]: binds
binding (rsPSMA dimer (human) [3]): binds
binding [4]: binds
binding (rsPSMA monomer (human)): binds
binding (rsPSMA dimer (human) [5]): binds
B2: AB-PG1-XG1-026 (antibody, human IgG1, V domains shown)
VH: B1 VH
VL: B1 VL

binding [6]: binds
binding [7]: binds
B3: AB-PG1-XG1-051 (antibody, human IgG1, V domains shown)
VH: QVQLVESGGGVVQPGRSLRLSCAASGFTFSSYGMHWVRQAPGKGLDWVAIIWHDGSNKYYADSVKGRFTISRDNSKKTLYLQMNSLRAEDTAVYYCARAWAYDYGDYEYYFGMDVWGQGTTVTVSS
VL: B1 VL with T30S, N31H, S72T, Y94F, I96L, Q100G, R103K, L104V
